This is an account of results in PMC8041195.

Test [1] addresses T1, Snx3 fused to the C-terminal half of Venus YFP (VC) (S. pombe) (UniProt O94291).
T1 sequence: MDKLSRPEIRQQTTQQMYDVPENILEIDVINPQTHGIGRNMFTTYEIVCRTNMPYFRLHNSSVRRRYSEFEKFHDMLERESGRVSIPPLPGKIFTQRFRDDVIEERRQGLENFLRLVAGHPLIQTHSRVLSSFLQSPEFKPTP
Put plainly: split reporter; BiFC in S. pombe cells: VN on the N-terminal end of Stx8, VC on the C-terminal end of Snx3; confocal spinning-disk fluorescence microscopy.

The target in test [2] is T2, GFP-Stx8 (S. pombe) (UniProt O14222).
T2 sequence: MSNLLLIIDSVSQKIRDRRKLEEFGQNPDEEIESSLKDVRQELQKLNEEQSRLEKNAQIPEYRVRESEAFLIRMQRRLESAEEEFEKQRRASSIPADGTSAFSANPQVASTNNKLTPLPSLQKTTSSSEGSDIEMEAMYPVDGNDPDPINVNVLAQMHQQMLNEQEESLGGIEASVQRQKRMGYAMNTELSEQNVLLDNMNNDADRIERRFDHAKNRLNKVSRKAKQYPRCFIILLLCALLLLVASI
Put plainly: co-IP; cleared lysates of S. pombe stx8Δ vps28Δ strains (also with snx3Δ or vps5Δ) in 20 mM HEPES pH 7.5, 150 mM NaCl, 5 mM EDTA, 0.2% Triton X100; 3 mg lysate treated with 1 mM DSP 1 h at 4°C; IP with anti-GFP μMAC magnetic beads; blot with anti-GFP and anti-HA.

Results are given in words; binding and its absence hold for the method and conditions named. In cells and extracts the contact can be indirect. Some entries that bind do so weakly or less than the wild type. Tags and fused reporters may be left off the sequences shown.

B1: Stx8 fused to the N-terminal half of Venus YFP (VN) (protein, UniProt O14222 1-247)
chain: MSNLLLIIDSVSQKIRDRRKLEEFGQNPDEEIESSLKDVRQELQKLNEEQSRLEKNAQIPEYRVRESEAFLIRMQRRLESAEEEFEKQRRASSIPADGTSAFSANPQVASTNNKLTPLPSLQKTTSSSEGSDIEMEAMYPVDGNDPDPINVNVLAQMHQQMLNEQEESLGGIEASVQRQKRMGYAMNTELSEQNVLLDNMNNDADRIERRFDHAKNRLNKVSRKAKQYPRCFIILLLCALLLLVASI
On to B1, for which the binding result in test [1] is “binds”.

B2: Vps35-HA (protein, UniProt O74552 1-836)
chain: MNGINTANEEITRSLEESLNICKQSSRLMQRNLQTGRLMDAFRNCSISLVEMRNSALTPKQYYELYMFNMESLRLLGGTLLETHLNGTHNLMDLYELVQYAGSIVPRLYLMITVGSAYLETPNALVREIMNDLLDMCRGVQHPLRGLFLRHYLLTQTRKGLPLGSEDEEDASRKGTVLDSVKFLVINFTEMNKLWVRIQHLGPIKEFSKRTQERNELKVLVGLNLVRLSQLNLDIDTYRDHVLPAIIEQIIECRDSLAQEYLVEVICQAFSDNMHLQTLDTYFGTVIKLSPSVNVTQLVVAMLNRLTDYVQREYESDSSNEDESETVTEKLGDIKINEEVQQKDEQECPGDKVIPPEYAIQEVLWSHVVEVIQSRSGLPLDCIVSILSSILNFFLRCYPYKPQYADRVFQYINEHIINQPSLRSALHERPLQKSLCAILLLPLTYFPSFSYCLELQNFLPVFNAQDPNLRYDIARMIVQKIIEKGHSLSELTEAQELLGFVSVIIEKKGVDSLDDLQNVALMVHYLNNDDPQIQIEILRSLKDTFIKAGENVKYLLPVVVNRCIFLARNFRIFKCMDWAEKVRLLWEFVNTCINVLYKNGDSLELCLALYLSAAEMADQENYPDFAYEFFTQAFSIYEESVLDSELQYQQLLMIIGKLQKTRNFSVDDYDTLITKCTLYASKLLKKPDQCCGIYLASHLWWQVASGEDSRPFQDPKRVLECLQKSLKIADACMDQLTSLKLFINILERYFYYYDQHCESIIAKHISGLIDLTEQNMRSILISSPADLIASDPRAYASSIWEVANVSVIDSLKNHLERATAYAEKRSEDERWSSIFQ
In the case of B2, the binding entry in test [2] is recorded as “binds”.
